Out of some 52,000 sequences screened, about 210 (0.4%) were called active.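 How the source made its calls: active means gene whose silencing raises cell survival under the drug, median off-target-corrected z-score across its silencing RNAs 2 or more; inactive means the rest.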 The list shows a part of the results.
Assay: Resistance to Poly (ADP-Ribose) Polymerase inhibitor: Gene Identification via Genome-wide siRNA Screen
Conditions: mouse BRCA2 R2336H ES cells, olaparib, CellTiter-Glo viability; hits give high values
Summary of the method: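 Genome-wide siRNA screen (3 siRNAs/gene, 20 nM) in mouse ES cells carrying hypomorphic BRCA2 R2336H; olaparib 500 nM added 48 h post-transfection, CellTiter-Glo viability 72 h later. Normalized to plate-median negative control; MAD z-scores, gene median, seed-adjusted.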

Row | Sequence | z-score
1 | GGUCAGAAGAGAUCAAAAGTT against 1600012K10Rik | inactive: -0.0376
2 | GGUCUUAUCAAGAAGUGUATT against Cpt1b | inactive: -1.98
3 | GGCAGCUGGAUCUCUUUGATT against Txnl5 | inactive: -0.0989
4 | GGUUUUGUUACAAUAAAGGTT against Fbxl6 | inactive: 0.426
5 | GGAGAGCUGGAACAAUAGCTT against Bcl2l2 | active: 2.66
6 | CCAACCAAAUCGUCGCCAUTT against Cdk7 | inactive: -1.68
7 | GGAUAAUGACCAACCUUCUTT against Fbxo7 | inactive: -1.81
8 | GGCACAGGUUCCUUUUGAATT against Myct1 | inactive: -0.647
9 | GGGCCAUUCAAACCACCAGTT against Vav3 | inactive: -1.01
10 | CCUUUUUGGGUUGCUCUGUTT against Slc39a1 | inactive: -0.253
11 | GCUAACGAUAUUUAUCACGTT against Olfr385 | inactive: 0.561
12 | GGGAGAGAGAAAUUCAUAATT against Mtpn | inactive: -2.04
13 | CCAUAAAAACCAGAGAAAUTT against Plekhf2 | inactive: 0.374
14 | GGUCUACGUGGCCAAAGUGTT against Txndc5 | inactive: -2.1
15 | CGACAUGGGAUUUGGCUUGTT against Rplp2 | inactive: -2.47
16 | GCUCGUACAGAAAUACGUCTT against Psmc2 | inactive: 0.0275
17 | GCCUUAUCCAUAUCGACUATT against Arrdc1 | inactive: 2.55
18 | GGAUAUCGAAGUGACAUCUTT against Rae1 | inactive: -1.48
19 | GGACAGUCUUUAGCUGAAATT against Slc2a10 | inactive: 1.53
20 | CCACGGAGAUGAAAUGCCUTT against Umpk | inactive: 0.929
21 | GGAAAUAAUCAGGUUUAUCTT against Col4a3 | inactive: -0.281
22 | CCUGGCAGUAAUCACCAUUTT against Olfr1158 | inactive: -0.361
23 | GGAAACAGAACAAGAUGUATT against Tnfsf13b | inactive: -1.05
24 | GGGCAAUUAGUAAAGGCUATT against Eif2s3x | inactive: -1.15
25 | GGAGCCGAAAAAGAUGACCTT against D11Ertd730e | inactive: -0.651
26 | GGAAAUGAGCAAAACUUUUTT against Pcdhb22 | inactive: 1.65

Row | Sequence | z-score
27 | GGAGAAAGCUCAGCAUACATT against Usp3 | inactive: -0.372
28 | GGAUUGAAGAGAAUUUACCTT against 5730419I09Rik | inactive: 0.00715
29 | CGAGCUAGAAGAGCUUCCATT against Hdgfrp2 | inactive: -1.97
30 | GGUCGUUACAGAAGAGUUUTT against Mageh1 | inactive: 1.57
31 | CCUUCAGAAGUCGACUUGUTT against Rpl37 | inactive: -3.28
32 | GCCGAGAUGAGCUCCUAAUTT against Krt1-c29 | inactive: -0.0719
33 | GGGCAGAAAAUCAUUUGUUTT against Anxa11 | inactive: -1.29
34 | GGAGAUCCAGGCAAUUUUUTT against Pink1 | inactive: 0.908
35 | GUGGUUUAACAUGAAGUCATT against A530094I17Rik | inactive: -0.685
36 | GGUGCAAGUUCCCAUUAUATT against Mcpt7 | inactive: 0.747
37 | GCUGAAGUUUACUAUAACATT against Marco | inactive: 0.663
38 | GGUGGUCUGGUUCAAGGAUTT against Mylk | inactive: -0.558
39 | CCCUUAAUCUUGCAUACUUTT against 7030401O21Rik | inactive: 0.545
40 | GGCCUGCAUAGAUGAGAACTT against Ppp1r12c | inactive: -0.701
41 | GUCUAUCCAGCAUCCUUGCTT against Prss19 | inactive: 0.708
42 | GGUGCAUUCUUAGUAUACUTT against D230012E17Rik | inactive: -2.23
43 | GGACACAUUCGAAUGAACCTT against Mkrn2 | inactive: 0.532
44 | GGUCCUACAGGAGAAGAUCTT against Tekt2 | inactive: -0.0665
45 | GGUUCCUUAAUCACUUUGCTT against Ndufa9 | inactive: -0.991
46 | GGAAGAACUUCAGGAAAAUTT against Micl | inactive: 1.41
47 | GGGUAUACCUAUCAUAGUATT against BC020354 | inactive: 0.0881
48 | GCAAUGAAUUCUAUUAUGGTT against Plrg1 | inactive: -2.57
49 | GGAUUAGUCAUCAUCUUCATT against Gabrb2 | inactive: -0.0587
50 | GGAGAAGCCUCAUCAACCATT against A930008G19Rik | inactive: -0.715
51 | GGGCAAGAUGUUUUUCUUCTT against 0610009O03Rik | inactive: 0.0444
52 | GGACCUAAACAACGUGUUGTT against Klf2 | inactive: 0.679

Laid out differently: entries from further up

| Row | Sequence | z-score |
| --- | --- | --- |
| 42 | GGUGCAUUCUUAGUAUACUTT against D230012E17Rik | inactive: -2.23 |
| 47 | GGGUAUACCUAUCAUAGUATT against BC020354 | inactive: 0.0881 |

Going on with the list:

Row | Sequence | z-score
53 | GCAUCCCAAGCUUAAAGCGTT against Malt1 | inactive: 1.14
54 | CCCAGUGUGAACAGAGGCATT against Xlr3a | inactive: -1.6
55 | CCAUUCAAGUAAAUGAACCTT against Efhc2 | inactive: -0.291
56 | GGUCUGUCGGAAAAUCUGGTT against Hrbl | inactive: -0.608
57 | GCAUAAACAGUGAAGCCACTT against Suv39h2 | inactive: 0.931
58 | GCCUUAUCUAAAAGCCAAGTT against 2610318C08Rik | inactive: -0.294
59 | GGACAUCUGUGUUUAUUCATT against Tcfcp2 | inactive: 1.49
60 | GCAUUGAAGAUCGAACACGTT against Fbxl11 | inactive: -0.551
61 | GGUGAAAGACCAUUUAUUUTT against BC003332 | inactive: 0.283
62 | GGACUUAUCUCAUCCAAGATT against C630010N09 | inactive: 0.308
63 | ACAAGUUUGAUACCGAAUUTT against Chic1 | inactive: -0.478
64 | GCGAAGAGUCAAAUCCAUCTT against 5830472H07Rik | inactive: 2.06
65 | GGCCAUUGCAUUCAUUGAUTT against Dusp9 | inactive: -0.355
66 | CCACAGGGAGACAUGAUAUTT against 2410022L05Rik | inactive: -1.6
67 | CGUACAAAGGUAGUAUACCTT against Pi4k2a | inactive: 0.876
68 | GGAAGAAGCAAAGAGGUCCTT against Foxm1 | inactive: -0.0681
69 | GGAAGAAGUGAAGAUCAUUTT against Acoxl | inactive: 0.0654
70 | GGCGAAUUAUUGAAAACGUTT against Actr8 | active: 3.41
71 | GCUAAAGUUGAUUGGAGAGTT against 3010033P07Rik | inactive: -0.694
72 | GGUUGUUUCACCAAUAGUUTT against Idi1 | inactive: -0.931
73 | GGACUGCUUUUUUUACUCATT against Mta2 | inactive: -0.588
74 | GCCAACCGUUUUCACAGACTT against Fthfd | inactive: 0.332
75 | GCGAAAGCAGCUGUCGGAATT against Nkx3-1 | inactive: 1.61
76 | GGCACGUCUCUAUUCAAGATT against Rab21 | inactive: 0.12
77 | GCGAUCUCACGAGGACUAATT against 9630033F20Rik | inactive: -2.07
78 | GGCCACCAAGACCAAUGAUTT against Akap8 | inactive: 0.631

Quoted at random: 7 entries already listed.
Row | Sequence | z-score
61 | GGUGAAAGACCAUUUAUUUTT against BC003332 | inactive: 0.283
62 | GGACUUAUCUCAUCCAAGATT against C630010N09 | inactive: 0.308
68 | GGAAGAAGCAAAGAGGUCCTT against Foxm1 | inactive: -0.0681
75 | GCGAAAGCAGCUGUCGGAATT against Nkx3-1 | inactive: 1.61
63 | ACAAGUUUGAUACCGAAUUTT against Chic1 | inactive: -0.478
70 | GGCGAAUUAUUGAAAACGUTT against Actr8 | active: 3.41
67 | CGUACAAAGGUAGUAUACCTT against Pi4k2a | inactive: 0.876

Next part

Row | Sequence | z-score
79 | GCCAAAUCAGGGACUGCUATT against Prkaa1 | inactive: -1.04
80 | GGACAGUGCCACUUAAACCTT against Tbxa2r | inactive: 0.769
81 | GACUGUGUUUAUUCCUCUGTT against Olfr1450 | inactive: -0.283
82 | GGACCCAGAUGUGACUGAGTT against Svil | inactive: 0.0266
83 | GGGUAGGAAACAAACACAGTT against Cox11 | inactive: 0.188
84 | GGAGACAGAAAGAGAAAAGTT against Pou3f2 | inactive: -0.945
85 | GGUGAACCAAAGACACUUCTT against Pcdhgc4 | inactive: -1.39
86 | GCUGGAGAUUCGUUACCGCTT against Cxxc1 | inactive: 0.0186
87 | GGAUUUUGGGAAUAGAACUTT against 5830458K16Rik | inactive: -0.367
88 | GGAAAUCUUUCUGACAGUCTT against Atoh8 | inactive: -0.959
89 | GCUCUACUUGUAUAUGCCCTT against Rdhe2 | inactive: 1.22
90 | GCUAACCAAAGUUUUGAGATT against Rbm11 | inactive: 1.06
91 | GGAGGUAGUAGAUUCUUCCTT against Dnase1l1 | inactive: -0.332
92 | AGAUGAUGAAAGCUUCUGCTT against Cyp2c40 | inactive: 0.442
93 | GGGAGAAAAUUGGCUUAGATT against Dclre1b | inactive: -0.067
94 | CCAGGGUAUAGUUUUCAACTT against BC027344 | inactive: 0.568
95 | CCAGGAAUCUGAGAUGAUGTT against 1600002K03Rik | inactive: 0.928
96 | GGAACUAUACCAAAGGCAATT against B230363K08Rik | inactive: 0.116
97 | GGGUCUGUUAUCUAAUCAGTT against Tk2 | inactive: 0.574
98 | CCAUACCUCCAAGUACUUGTT against Itgal | inactive: -0.666
99 | GCCCUUUACAAGGUUCUGUTT against Slc35f3 | inactive: -0.719
100 | CCGCUUCAGAUCUUUCGAGTT against Dcamkl1 | inactive: -0.195
101 | GCUAAAGGUGUGGUCUUUGTT against Cyp2d13 | inactive: 0.922
102 | CCAGUAACUCAUGGUGCCUTT against MapKapk3 | inactive: 2.11
103 | GGCCAACAUCUGCUAUGUCTT against Hao3 | inactive: 0.175
104 | GGAAACUUGUUCAUGAUUGTT against Olfr1023 | inactive: -0.934

From PubChem BioAssay AID1347423 (Functional Genomics Laboratory (NCATS/FGL), 2020)
